From PMC9744909, “Functional crosstalk between the cohesin loader and chromatin remodelers” (Nature Communications, 2022)
Results are given in words; binding and its absence hold for the method and conditions named. For part of these data: In cells and extracts the contact can be indirect. Some results given as binding are weak or reduced against the parent protein; the word gives no strength. For part of these data: Tags and fused reporters may be left off the sequences shown.

Protein sequences, listed by entry. Tags and fused reporters are not part of them. Residues count along the entry.
UniProt Q06488: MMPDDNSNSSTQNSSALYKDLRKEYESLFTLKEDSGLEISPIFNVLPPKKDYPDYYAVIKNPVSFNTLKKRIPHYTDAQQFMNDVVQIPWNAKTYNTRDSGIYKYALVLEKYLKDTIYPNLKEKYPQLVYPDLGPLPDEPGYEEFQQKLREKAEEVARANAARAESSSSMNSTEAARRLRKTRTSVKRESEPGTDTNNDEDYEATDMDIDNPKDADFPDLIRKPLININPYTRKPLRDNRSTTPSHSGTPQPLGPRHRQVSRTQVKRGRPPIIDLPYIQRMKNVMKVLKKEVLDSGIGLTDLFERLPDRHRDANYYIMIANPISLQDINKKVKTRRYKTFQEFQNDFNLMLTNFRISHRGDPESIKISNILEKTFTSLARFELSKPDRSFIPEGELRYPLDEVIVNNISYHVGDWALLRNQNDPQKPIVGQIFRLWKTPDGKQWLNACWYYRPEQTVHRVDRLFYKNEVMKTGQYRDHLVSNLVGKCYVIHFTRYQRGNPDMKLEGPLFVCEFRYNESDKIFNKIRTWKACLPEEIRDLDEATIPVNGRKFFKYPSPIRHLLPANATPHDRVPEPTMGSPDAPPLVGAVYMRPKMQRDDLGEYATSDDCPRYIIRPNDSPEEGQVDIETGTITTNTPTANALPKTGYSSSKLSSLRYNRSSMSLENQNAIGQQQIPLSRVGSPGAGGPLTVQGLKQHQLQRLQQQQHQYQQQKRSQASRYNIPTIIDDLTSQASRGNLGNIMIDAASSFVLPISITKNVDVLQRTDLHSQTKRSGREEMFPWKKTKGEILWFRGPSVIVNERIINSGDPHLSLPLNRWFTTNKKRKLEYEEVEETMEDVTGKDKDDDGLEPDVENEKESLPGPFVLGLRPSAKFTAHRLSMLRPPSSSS
UniProt Q9UTN6: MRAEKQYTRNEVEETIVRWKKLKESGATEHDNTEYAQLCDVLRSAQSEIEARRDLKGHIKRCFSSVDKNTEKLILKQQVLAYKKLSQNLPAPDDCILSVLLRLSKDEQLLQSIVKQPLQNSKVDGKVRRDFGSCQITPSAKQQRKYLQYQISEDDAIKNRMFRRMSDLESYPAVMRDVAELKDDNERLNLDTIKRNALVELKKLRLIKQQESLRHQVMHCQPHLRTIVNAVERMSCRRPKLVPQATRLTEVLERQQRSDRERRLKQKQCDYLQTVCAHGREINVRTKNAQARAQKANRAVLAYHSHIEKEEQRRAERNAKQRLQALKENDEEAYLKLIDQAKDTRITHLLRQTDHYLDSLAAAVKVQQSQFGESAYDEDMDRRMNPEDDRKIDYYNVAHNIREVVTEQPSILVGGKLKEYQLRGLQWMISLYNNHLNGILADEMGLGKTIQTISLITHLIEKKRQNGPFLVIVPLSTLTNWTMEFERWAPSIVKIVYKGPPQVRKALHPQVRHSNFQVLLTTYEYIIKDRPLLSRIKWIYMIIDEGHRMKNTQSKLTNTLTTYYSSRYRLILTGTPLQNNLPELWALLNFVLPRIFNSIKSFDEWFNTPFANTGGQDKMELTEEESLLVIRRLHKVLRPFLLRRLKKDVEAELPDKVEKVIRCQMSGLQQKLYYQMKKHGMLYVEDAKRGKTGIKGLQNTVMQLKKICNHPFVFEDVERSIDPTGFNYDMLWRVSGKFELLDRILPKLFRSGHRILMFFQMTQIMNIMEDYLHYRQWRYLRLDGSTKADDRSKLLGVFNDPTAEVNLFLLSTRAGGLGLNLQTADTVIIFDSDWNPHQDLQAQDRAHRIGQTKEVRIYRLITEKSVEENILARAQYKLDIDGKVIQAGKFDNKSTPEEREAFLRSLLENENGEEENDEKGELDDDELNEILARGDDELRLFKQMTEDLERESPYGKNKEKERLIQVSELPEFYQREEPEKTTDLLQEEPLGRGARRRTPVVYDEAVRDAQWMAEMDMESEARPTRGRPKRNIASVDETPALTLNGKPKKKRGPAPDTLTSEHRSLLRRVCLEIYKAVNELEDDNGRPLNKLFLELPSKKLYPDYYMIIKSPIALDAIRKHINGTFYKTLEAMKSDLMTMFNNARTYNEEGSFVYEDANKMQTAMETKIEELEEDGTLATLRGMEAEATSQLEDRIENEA
UniProt P32597, residues 365-1097: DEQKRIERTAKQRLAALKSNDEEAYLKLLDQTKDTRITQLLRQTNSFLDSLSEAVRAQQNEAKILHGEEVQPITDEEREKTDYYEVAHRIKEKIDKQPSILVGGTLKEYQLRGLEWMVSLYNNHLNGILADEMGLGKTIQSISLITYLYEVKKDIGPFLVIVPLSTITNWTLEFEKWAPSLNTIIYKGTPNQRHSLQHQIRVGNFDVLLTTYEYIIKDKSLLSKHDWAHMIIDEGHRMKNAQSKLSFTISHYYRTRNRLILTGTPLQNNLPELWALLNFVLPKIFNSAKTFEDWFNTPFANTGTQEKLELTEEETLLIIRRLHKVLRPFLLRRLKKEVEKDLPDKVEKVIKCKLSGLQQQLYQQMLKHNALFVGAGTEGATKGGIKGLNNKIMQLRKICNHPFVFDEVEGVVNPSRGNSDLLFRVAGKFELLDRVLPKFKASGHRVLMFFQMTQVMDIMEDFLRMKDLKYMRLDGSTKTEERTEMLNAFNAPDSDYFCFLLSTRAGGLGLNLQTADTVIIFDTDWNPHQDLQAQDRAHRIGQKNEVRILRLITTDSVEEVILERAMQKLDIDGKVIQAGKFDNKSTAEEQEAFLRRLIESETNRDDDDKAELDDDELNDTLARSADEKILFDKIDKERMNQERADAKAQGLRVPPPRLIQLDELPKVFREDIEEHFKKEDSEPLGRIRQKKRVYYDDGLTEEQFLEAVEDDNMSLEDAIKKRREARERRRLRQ

Tests used:
[1] = target: T1, Rsc1 fused to Pk epitope tags (S. cerevisiae) (UniProt P53236); assay: co-IP; S. cerevisiae cell extracts in EBX buffer (100 mM KCl, 0.25% Triton X-100, RNase and benzonase); Pk-tagged Rsc1 or Rsc2 on anti-Pk protein A Dynabeads, last wash 300 mM KCl; HA-tagged Scc2 or Scc4 detected by immunoblotting
T1 sequence: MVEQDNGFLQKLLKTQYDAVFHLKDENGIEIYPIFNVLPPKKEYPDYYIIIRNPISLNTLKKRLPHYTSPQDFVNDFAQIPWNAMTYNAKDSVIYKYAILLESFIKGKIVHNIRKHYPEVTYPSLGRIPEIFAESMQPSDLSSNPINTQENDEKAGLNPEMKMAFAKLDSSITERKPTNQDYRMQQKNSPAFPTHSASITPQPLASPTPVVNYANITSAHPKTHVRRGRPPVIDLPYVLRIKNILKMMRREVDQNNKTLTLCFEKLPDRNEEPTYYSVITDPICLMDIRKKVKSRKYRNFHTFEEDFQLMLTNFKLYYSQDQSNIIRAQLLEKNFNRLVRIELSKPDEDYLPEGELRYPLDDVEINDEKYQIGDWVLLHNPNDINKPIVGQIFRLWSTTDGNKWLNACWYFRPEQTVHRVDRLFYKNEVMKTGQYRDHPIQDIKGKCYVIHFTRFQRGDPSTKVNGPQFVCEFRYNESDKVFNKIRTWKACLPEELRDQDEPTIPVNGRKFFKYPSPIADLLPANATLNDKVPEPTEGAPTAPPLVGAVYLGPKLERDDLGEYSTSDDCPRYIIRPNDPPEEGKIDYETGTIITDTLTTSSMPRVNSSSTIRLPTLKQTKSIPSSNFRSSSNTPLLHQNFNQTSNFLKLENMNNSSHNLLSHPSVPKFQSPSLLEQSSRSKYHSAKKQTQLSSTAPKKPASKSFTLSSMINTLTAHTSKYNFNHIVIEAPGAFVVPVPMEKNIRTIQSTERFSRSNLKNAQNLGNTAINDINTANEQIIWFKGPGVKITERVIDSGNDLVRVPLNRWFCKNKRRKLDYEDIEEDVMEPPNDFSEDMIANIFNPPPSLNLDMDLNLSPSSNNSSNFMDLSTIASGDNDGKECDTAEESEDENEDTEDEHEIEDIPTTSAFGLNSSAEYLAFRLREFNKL

[2] = target: Rsc2 fused to Pk epitope tags (S. cerevisiae) (UniProt Q06488); assay: as above
[3] = target: T2, Scc4-Scc2N cohesin loader module (S. cerevisiae) (UniProt P40090+Q04002); assay: pull-down; 10 pmol Scc2-Scc4, Scc2C or Scc4-Scc2N on anti-HA protein A magnetic beads, 5 uM Sth1 365-1097, 4 C 30 min, IP buffer; Coomassie Blue staining; repeated without nucleotide, with ATP or with ADP-BeF3 (ADP-BeF3 markedly increased the interaction); both purified
T2 sequence 1: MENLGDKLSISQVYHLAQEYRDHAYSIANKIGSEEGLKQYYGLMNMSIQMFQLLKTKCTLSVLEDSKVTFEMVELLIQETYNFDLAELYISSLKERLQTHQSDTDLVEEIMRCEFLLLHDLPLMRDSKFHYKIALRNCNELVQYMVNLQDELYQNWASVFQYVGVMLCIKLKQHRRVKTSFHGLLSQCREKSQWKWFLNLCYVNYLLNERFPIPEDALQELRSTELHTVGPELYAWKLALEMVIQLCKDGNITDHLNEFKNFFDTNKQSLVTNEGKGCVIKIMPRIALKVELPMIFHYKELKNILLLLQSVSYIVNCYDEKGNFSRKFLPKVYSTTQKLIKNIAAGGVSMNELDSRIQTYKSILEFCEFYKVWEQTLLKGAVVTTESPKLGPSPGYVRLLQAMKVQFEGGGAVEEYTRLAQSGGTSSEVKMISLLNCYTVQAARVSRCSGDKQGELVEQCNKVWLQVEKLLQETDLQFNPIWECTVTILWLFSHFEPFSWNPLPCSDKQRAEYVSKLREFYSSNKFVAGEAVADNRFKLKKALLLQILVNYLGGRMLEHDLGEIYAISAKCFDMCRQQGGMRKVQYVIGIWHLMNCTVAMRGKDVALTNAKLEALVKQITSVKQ
T2 sequence 2: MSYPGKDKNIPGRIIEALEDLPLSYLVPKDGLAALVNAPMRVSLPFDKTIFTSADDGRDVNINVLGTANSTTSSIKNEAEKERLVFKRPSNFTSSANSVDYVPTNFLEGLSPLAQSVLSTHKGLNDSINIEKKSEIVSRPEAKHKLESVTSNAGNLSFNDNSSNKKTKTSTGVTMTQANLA

[4] = target: fission yeast RSC complex (its ATPase subunit fused to a protein A tag) (S. pombe) (UniProt Q9UTN6); assay: pull-down; S. cerevisiae or S. pombe cell extracts in EBX buffer with RNase and benzonase; protein A-tagged remodeler ATPase subunits on IgG-coated Dynabeads, last wash 300 mM KCl; Scc4 or Ssl3 detected by immunoblotting; performed once

cohesin loader with an HA epitope on its Scc4 subunit (from UniProt Q04002 1-1493; P40090 1-624) (complex)
binding [1]: binds | binding [2]: binds

cohesin loader with an HA epitope on its Scc2 subunit (from UniProt Q04002 1-1493; P40090 1-624) (complex)
binding [1]: binds | binding [2]: binds

Sth1 365-1097 fragment (ATPase motor module) (from UniProt P32597 365-1097) (domain or fragment)
binding [3]: binds

B1: Ssl3, the fission yeast Scc4 ortholog (protein, UniProt O94459 1-559)
chain: MTGLNETDARILVTSRHLFLWPLAETYFKNAEKVLQDCGVCDSFGRLLSTGLQCLYSVLMDTKMEPRVELLTRKRICEVLLSHTVEYADVEAILNRALIIAEQHNLTEYKFSLQLLLSRVFCRTSPKAAKVLLTRCVREAEEYAKVAEIYHSNNQSNPHRWVYEFLLATLEFQNVSQVANSIHNYANHHKHQHLQLLAMILNQSLPMDEISTDSDQISILCLVTQIAQCLRKGEILLAREILPKIHSKLESETFVWPSSYIDFFIDDTSKISIKWMSINQLYLLIYLISGFCYISDSTSGRASRFLQEGLRITGDFKHQERCVLEYLESQKWINNITKDMKYYLIATYLSRSRLSKAERILQSTEDDQTGFLGILKGMYLQKRGDLKKAEVHYRETAKNFSFRTDTFIISTLNLINILEDSAAASRCLESIEPLCNKHEKKIFKLWLLVLKVIREGPQVHQSNVLPRVIQQSSEYANTQLQYISLTELSERFGKLEHAEKMAISALELAKKSKDELWCLISGRILEDFYRSVQKYDKMRQQALENSAYSKLIEDIYSFV
binding [4]: binds
